The supplement of paper PMC12823440, “Inhibitors supercharge kinase turnover through native proteolytic circuits” (Nature, 2025)
The list shows a part of the results. The calls rarely recur for the same compound in another form.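 Kinases, fused to nanoluciferase, were expressed in K562 cells; luminescence was measured every 4 h from 2 to 18 h as percent of control (DMSO = 100%, positive control = 0%). A time point is decreased if signal falls significantly (2 sigma). Hits were called by the authors by a rule that is not shown; the count of time points alone does not decide it.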

The chains behind the UniProt entries cited, without tags or fusion partners. Where a name states a change or a piece, a line headed by the entry shows the natural chain unless it says otherwise.
UniProt Q9NYA1, whole entry: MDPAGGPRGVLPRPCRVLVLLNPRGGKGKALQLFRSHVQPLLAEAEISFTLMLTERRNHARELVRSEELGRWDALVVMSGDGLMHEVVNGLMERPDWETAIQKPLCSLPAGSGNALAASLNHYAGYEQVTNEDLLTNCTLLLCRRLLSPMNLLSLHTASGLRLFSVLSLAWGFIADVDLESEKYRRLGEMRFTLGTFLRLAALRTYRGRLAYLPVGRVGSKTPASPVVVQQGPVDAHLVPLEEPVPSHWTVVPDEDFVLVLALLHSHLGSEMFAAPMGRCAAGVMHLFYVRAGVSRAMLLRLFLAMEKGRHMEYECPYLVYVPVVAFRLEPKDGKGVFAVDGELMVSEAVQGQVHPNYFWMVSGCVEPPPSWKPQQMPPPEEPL
UniProt O14965: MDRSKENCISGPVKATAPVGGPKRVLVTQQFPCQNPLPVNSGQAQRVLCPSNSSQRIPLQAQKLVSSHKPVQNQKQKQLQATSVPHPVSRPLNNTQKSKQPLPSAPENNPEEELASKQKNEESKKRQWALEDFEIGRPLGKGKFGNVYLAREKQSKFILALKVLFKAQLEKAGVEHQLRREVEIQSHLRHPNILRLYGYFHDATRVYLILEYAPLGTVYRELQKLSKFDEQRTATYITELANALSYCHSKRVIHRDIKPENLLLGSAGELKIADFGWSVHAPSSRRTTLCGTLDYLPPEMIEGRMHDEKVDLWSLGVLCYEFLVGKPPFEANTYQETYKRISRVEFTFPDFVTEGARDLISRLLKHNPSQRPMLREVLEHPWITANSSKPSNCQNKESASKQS
UniProt P42356, whole entry, looked up: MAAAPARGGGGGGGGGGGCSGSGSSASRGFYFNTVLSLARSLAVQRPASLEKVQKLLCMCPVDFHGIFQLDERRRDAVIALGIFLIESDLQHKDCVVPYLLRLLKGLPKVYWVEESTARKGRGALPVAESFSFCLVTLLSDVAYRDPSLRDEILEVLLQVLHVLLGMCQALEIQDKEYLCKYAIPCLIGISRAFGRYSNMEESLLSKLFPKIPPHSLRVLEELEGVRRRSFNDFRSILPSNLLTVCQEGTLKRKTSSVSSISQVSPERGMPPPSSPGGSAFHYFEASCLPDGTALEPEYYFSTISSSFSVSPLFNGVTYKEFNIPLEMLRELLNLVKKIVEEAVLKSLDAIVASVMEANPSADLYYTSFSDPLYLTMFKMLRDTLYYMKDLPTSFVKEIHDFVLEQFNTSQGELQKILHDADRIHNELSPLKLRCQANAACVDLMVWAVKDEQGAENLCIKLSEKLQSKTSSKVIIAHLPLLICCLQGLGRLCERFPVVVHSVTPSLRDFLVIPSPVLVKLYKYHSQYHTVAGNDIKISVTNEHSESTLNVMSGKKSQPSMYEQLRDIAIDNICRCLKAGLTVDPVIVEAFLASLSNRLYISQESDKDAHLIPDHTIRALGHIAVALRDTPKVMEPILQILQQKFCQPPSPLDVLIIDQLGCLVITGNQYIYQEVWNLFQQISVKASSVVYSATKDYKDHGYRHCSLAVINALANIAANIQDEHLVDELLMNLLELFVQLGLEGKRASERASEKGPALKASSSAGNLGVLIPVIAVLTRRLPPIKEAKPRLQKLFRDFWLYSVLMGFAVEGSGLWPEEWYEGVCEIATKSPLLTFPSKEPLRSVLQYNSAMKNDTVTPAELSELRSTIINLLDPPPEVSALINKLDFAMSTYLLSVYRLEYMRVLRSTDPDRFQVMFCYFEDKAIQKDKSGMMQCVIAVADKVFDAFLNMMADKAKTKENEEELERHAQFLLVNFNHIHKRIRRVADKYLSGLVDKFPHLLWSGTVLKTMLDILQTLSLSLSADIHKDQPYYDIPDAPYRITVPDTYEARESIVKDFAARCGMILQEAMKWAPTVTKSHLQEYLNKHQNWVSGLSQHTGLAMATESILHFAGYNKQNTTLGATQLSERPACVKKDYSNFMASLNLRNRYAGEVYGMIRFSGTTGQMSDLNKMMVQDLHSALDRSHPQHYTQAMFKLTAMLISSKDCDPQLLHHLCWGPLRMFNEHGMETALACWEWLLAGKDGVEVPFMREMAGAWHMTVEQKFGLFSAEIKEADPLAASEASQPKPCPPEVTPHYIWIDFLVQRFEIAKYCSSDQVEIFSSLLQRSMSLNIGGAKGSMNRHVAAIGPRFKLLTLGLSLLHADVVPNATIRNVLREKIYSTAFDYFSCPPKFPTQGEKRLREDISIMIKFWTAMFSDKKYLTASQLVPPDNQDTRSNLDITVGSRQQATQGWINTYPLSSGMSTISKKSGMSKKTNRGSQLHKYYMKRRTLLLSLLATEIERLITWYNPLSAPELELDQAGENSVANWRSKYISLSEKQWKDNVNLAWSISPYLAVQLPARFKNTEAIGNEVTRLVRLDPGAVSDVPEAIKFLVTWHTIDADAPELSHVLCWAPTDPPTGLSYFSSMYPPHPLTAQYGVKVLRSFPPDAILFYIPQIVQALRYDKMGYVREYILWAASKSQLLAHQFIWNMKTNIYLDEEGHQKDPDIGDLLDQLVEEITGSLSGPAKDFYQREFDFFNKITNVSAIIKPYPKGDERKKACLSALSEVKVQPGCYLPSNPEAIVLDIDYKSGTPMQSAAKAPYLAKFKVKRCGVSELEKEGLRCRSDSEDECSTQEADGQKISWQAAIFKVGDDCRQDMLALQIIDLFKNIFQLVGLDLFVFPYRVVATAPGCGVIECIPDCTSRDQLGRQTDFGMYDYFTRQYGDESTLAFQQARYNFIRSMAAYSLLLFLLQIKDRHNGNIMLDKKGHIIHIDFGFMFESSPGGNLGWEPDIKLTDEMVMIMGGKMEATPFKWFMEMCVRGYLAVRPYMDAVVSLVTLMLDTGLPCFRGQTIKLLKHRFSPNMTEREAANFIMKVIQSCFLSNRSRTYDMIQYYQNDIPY
UniProt P07333, whole entry: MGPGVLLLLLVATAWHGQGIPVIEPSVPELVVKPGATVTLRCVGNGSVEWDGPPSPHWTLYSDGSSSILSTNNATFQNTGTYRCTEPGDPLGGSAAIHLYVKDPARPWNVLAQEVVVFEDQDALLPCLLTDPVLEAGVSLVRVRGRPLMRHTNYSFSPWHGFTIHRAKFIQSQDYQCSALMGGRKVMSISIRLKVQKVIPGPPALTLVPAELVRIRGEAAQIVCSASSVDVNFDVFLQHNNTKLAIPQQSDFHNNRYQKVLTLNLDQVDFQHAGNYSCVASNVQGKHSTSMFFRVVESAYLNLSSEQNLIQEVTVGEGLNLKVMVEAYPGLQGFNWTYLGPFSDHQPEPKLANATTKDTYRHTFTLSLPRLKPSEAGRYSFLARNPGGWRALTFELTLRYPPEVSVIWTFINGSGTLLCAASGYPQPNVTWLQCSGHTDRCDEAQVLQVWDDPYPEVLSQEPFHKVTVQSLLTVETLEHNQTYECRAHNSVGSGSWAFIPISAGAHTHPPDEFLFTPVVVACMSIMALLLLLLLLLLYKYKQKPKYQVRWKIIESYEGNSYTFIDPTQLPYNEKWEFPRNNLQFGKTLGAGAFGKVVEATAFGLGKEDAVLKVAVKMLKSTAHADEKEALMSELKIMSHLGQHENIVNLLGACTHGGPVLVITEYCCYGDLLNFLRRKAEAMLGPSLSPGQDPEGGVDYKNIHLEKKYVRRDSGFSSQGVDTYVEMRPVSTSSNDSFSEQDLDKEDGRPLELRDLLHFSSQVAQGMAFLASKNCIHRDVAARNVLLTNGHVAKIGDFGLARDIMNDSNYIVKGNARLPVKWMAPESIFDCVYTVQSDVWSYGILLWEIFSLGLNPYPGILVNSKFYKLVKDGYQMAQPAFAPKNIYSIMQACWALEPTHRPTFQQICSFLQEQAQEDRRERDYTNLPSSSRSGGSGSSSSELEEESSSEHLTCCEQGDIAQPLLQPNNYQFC
UniProt Q06187: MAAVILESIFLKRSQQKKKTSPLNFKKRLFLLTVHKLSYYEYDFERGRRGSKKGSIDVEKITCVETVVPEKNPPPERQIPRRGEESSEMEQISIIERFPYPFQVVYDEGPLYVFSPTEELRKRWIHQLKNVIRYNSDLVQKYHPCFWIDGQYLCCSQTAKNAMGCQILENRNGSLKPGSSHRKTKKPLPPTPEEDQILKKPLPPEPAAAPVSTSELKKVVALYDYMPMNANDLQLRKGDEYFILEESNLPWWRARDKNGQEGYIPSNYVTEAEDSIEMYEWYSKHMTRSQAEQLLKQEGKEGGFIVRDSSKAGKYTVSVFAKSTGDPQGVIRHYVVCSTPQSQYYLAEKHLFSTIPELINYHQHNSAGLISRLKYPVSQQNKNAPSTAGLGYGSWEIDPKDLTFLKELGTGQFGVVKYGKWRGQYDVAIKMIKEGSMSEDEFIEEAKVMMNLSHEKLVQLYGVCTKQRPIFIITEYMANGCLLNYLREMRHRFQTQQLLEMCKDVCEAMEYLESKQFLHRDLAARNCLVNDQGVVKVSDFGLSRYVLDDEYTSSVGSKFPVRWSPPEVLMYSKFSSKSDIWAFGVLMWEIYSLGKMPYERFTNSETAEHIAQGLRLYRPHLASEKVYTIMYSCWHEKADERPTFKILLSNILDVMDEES
UniProt P53350, whole entry: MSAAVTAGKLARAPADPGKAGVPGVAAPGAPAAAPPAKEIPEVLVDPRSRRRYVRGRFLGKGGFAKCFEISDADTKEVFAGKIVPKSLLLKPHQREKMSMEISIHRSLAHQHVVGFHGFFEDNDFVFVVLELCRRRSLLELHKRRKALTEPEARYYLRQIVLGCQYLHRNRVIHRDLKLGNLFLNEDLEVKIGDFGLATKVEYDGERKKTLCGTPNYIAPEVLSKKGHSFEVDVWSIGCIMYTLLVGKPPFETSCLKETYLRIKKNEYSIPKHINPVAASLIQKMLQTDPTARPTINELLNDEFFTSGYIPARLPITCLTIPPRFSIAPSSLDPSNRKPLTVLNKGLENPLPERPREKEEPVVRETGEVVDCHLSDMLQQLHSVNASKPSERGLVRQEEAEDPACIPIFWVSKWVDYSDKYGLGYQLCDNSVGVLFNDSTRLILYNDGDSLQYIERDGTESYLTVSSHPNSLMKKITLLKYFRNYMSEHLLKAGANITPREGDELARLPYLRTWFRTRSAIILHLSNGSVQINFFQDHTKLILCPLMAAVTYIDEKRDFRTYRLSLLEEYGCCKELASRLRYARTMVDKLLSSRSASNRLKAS
UniProt Q9Y463, whole entry, looked up: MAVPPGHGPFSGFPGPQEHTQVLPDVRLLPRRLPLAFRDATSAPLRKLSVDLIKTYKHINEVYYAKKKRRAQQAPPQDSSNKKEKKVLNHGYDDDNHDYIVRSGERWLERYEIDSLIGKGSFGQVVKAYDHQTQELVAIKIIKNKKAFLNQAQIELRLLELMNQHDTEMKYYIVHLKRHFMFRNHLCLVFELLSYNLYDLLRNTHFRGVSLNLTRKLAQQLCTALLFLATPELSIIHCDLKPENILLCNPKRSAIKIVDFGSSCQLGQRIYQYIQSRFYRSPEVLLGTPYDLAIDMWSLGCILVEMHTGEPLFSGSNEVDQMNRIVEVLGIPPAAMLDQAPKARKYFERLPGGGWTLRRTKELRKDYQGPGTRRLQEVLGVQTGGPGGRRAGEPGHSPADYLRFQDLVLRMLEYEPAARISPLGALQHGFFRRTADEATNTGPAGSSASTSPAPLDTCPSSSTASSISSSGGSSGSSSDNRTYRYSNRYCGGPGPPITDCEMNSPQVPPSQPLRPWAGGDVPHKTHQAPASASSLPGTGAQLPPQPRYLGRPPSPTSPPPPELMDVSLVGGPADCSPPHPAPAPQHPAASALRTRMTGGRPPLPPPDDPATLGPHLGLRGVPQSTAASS
UniProt P48730: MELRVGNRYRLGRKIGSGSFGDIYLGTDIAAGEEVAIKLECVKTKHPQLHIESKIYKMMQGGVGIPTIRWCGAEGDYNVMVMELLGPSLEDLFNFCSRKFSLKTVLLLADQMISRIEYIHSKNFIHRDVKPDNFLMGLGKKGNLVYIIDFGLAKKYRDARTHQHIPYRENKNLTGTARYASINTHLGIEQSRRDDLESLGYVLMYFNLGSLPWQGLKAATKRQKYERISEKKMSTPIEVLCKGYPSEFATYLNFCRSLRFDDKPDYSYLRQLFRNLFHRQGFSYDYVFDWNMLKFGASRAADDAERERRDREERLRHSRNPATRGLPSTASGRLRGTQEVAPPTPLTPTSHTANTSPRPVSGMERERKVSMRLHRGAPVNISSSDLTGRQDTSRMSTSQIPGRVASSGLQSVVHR

What was measured:
Test in all cases: number of time points (of 5) at which kinase-Nluc abundance scored as decreased, DMSO-normalised (count); higher = more persistent destabilization
Trametinib = compound: CC(=O)Nc1cccc(-n2c(=O)n(C3CC3)c(=O)c3c(Nc4ccc(I)cc4F)n(C)c(=O)c(C)c32)c1 [Trametinib]; settings: 10 µM; K562; 2-18 h
[1] = compound: CC(=O)c1c(C)c2cnc(Nc3ccc(N4CCNCC4)cn3)nc2n(C2CCCC2)c1=O [Palbociclib (isethionate)]; settings: 10 µM; K562; 2-18 h
[2] = compound: CC(=O)c1c(C)c2cnc(Nc3ccc(N4CCNCC4)cn3)nc2n(C2CCCC2)c1=O [Palbociclib (monohydrochloride)]; settings: 10 µM; K562; 2-18 h
[3] = compound: CC(C)(C)n1nc(-c2cccc3ccccc23)c2c(N)ncnc21 [1-Naphthyl PP1 (hydrochloride)]; settings: 10 µM; K562; 2-18 h
1-Naphthyl PP1 = compound: CC(C)(C)n1nc(-c2cccc3ccccc23)c2c(N)ncnc21 [1-Naphthyl PP1]; settings: 10 µM; K562; 2-18 h
[4] = compound: CC(C)NC[C@@H](C(=O)N1CCN(c2ncnc3c2[C@H](C)C[C@H]3O)CC1)c1ccc(Cl)cc1 [Ipatasertib (dihydrochloride)]; settings: 10 µM; K562; 2-18 h
Ipatasertib = compound: CC(C)NC[C@@H](C(=O)N1CCN(c2ncnc3c2[C@H](C)C[C@H]3O)CC1)c1ccc(Cl)cc1 [Ipatasertib]; settings: 10 µM; K562; 2-18 h
[5] = compound: CC(C)Nc1cc(-c2c[nH]c(C(=O)N[C@H](CO)c3cccc(Cl)c3)c2)c(Cl)cn1 [Ulixertinib (hydrochloride)]; settings: 10 µM; K562; 2-18 h
Ulixertinib = compound: CC(C)Nc1cc(-c2c[nH]c(C(=O)N[C@H](CO)c3cccc(Cl)c3)c2)c(Cl)cn1 [Ulixertinib]; settings: 10 µM; K562; 2-18 h
[6] = compound: CC(C)Oc1ccc(-c2nn([C@@H](C)c3oc4ccc(F)cc4c(=O)c3-c3cccc(F)c3)c3ncnc(N)c23)cc1F [Umbralisib (hydrochloride)]; settings: 2.5 µM; K562; 2-18 h
Umbralisib = compound: CC(C)Oc1ccc(-c2nn([C@@H](C)c3oc4ccc(F)cc4c(=O)c3-c3cccc(F)c3)c3ncnc(N)c23)cc1F [Umbralisib]; settings: 2.5 µM; K562; 2-18 h
Bucladesine (calcium) = compound: CCCC(=O)Nc1ncnc2c1ncn2[C@@H]1O[C@@H]2COP(=O)(O)O[C@H]2[C@H]1OC(=O)CCC [Bucladesine (calcium)]; settings: 10 µM; K562; 2-18 h
Bucladesine (sodium) = compound: CCCC(=O)Nc1ncnc2c1ncn2[C@@H]1O[C@@H]2COP(=O)(O)O[C@H]2[C@H]1OC(=O)CCC [Bucladesine (sodium)]; settings: 10 µM; K562; 2-18 h
[7] = compound: CCCCCCCCc1ccc(CCC(N)(CO)CO)cc1 [Fingolimod (hydrochloride)]; settings: 2.5 µM; K562; 2-18 h
Fingolimod = compound: CCCCCCCCc1ccc(CCC(N)(CO)CO)cc1 [Fingolimod]; settings: 2.5 µM; K562; 2-18 h
[8] = compound: CCN(CC)CC(=O)Nc1c(C)cccc1C [Lidocaine (hydrochloride)]; settings: 10 µM; K562; 2-18 h
Lidocaine = compound: CCN(CC)CC(=O)Nc1c(C)cccc1C [Lidocaine]; settings: 10 µM; K562; 2-18 h
[9] = compound: CCN(CC)Cc1ccc(OC)c(-c2cc3c(-c4ccc(C(=O)O)c(C(C)C)c4)ccnc3[nH]2)c1; settings: K562, 2-18 h
Baricitinib (phosphate) = compound: CCS(=O)(=O)N1CC(CC#N)(n2cc(-c3ncnc4[nH]ccc34)cn2)C1 [Baricitinib (phosphate)]; settings: 10 µM; K562; 2-18 h
Baricitinib = compound: CCS(=O)(=O)N1CC(CC#N)(n2cc(-c3ncnc4[nH]ccc34)cn2)C1 [Baricitinib]; settings: 10 µM; K562; 2-18 h

Measured: number of time points

SPHK1 (UniProt Q9NYA1)
1: Trametinib
3: Fingolimod
0: [1] | [2] | [3] | 1-Naphthyl PP1 | [4] | Ipatasertib | [5] | Ulixertinib | [6] | Umbralisib | Bucladesine (calcium) | Bucladesine (sodium) | [7] | [8] | Lidocaine | [9]; 2.5 µM | [9]; 10 µM | Baricitinib (phosphate) | Baricitinib

HER2 (UniProt P04626)
0: Trametinib | [1] | [2] | [3] | 1-Naphthyl PP1 | [4] | Ipatasertib | [5] | Ulixertinib | [6] | Umbralisib | Bucladesine (calcium) | Bucladesine (sodium) | [7] | Fingolimod | [8] | Lidocaine | [9]; 2.5 µM | [9]; 10 µM | Baricitinib (phosphate) | Baricitinib

AURKA (UniProt O14965)
3: [2]
4: [1]
0: [3] | 1-Naphthyl PP1 | [4] | Ipatasertib | [5] | Ulixertinib | [6] | Umbralisib | Bucladesine (calcium) | Bucladesine (sodium) | Fingolimod | [8] | Lidocaine | [9]; 2.5 µM | Baricitinib (phosphate) | Baricitinib
1: Trametinib
2: [7] | [9]; 10 µM

PIK4CA (UniProt P42356)
2: [1]
0: Trametinib | [2] | [3] | 1-Naphthyl PP1 | [4] | Ipatasertib | [5] | Ulixertinib | [6] | Umbralisib | Bucladesine (calcium) | Bucladesine (sodium) | [7] | Fingolimod | [8] | Lidocaine | [9]; 2.5 µM | [9]; 10 µM | Baricitinib (phosphate) | Baricitinib

Reprinted at random: 2 entries already listed
SPHK1 (UniProt Q9NYA1)
1: Trametinib
3: Fingolimod
0: [1] | [2] | [3] | 1-Naphthyl PP1 | [4] | Ipatasertib | [5] | Ulixertinib | [6] | Umbralisib | Bucladesine (calcium) | Bucladesine (sodium) | [7] | [8] | Lidocaine | [9]; 2.5 µM | [9]; 10 µM | Baricitinib (phosphate) | Baricitinib

AURKA (UniProt O14965)
3: [2]
4: [1]
0: [3] | 1-Naphthyl PP1 | [4] | Ipatasertib | [5] | Ulixertinib | [6] | Umbralisib | Bucladesine (calcium) | Bucladesine (sodium) | Fingolimod | [8] | Lidocaine | [9]; 2.5 µM | Baricitinib (phosphate) | Baricitinib
1: Trametinib
2: [7] | [9]; 10 µM

Later entries.

CSF1R (UniProt P07333)
0: Trametinib | [1] | [2] | [3] | 1-Naphthyl PP1 | [4] | Ipatasertib | [5] | Ulixertinib | [6] | Umbralisib | Bucladesine (calcium) | Bucladesine (sodium) | [7] | Fingolimod | [8] | Lidocaine | [9]; 2.5 µM | [9]; 10 µM | Baricitinib (phosphate) | Baricitinib

BTK (UniProt Q06187)
0: Trametinib | [1] | [2] | [3] | 1-Naphthyl PP1 | [4] | Ipatasertib | [5] | Ulixertinib | [6] | Umbralisib | Bucladesine (calcium) | Bucladesine (sodium) | [7] | Fingolimod | [8] | Lidocaine | [9]; 2.5 µM | [9]; 10 µM | Baricitinib (phosphate) | Baricitinib

PLK1 (UniProt P53350)
0: Trametinib | [1] | [2] | [3] | 1-Naphthyl PP1 | [4] | Ipatasertib | [5] | Ulixertinib | [6] | Umbralisib | Bucladesine (calcium) | Bucladesine (sodium) | [7] | Fingolimod | [8] | Lidocaine | [9]; 2.5 µM | [9]; 10 µM | Baricitinib (phosphate) | Baricitinib

DYRK1B (UniProt Q9Y463)
0: Trametinib | [1] | [2] | [3] | 1-Naphthyl PP1 | [4] | Ipatasertib | [5] | Ulixertinib | [6] | Umbralisib | Bucladesine (calcium) | Bucladesine (sodium) | [7] | Fingolimod | [8] | Lidocaine | [9]; 2.5 µM | [9]; 10 µM | Baricitinib (phosphate) | Baricitinib

CSNK1D (UniProt P48730)
0: Trametinib | [1] | [2] | [4] | Ipatasertib | [5] | Ulixertinib | [6] | Umbralisib | Bucladesine (calcium) | Bucladesine (sodium) | [7] | Fingolimod | [8] | Lidocaine | [9]; 2.5 µM | [9]; 10 µM | Baricitinib (phosphate) | Baricitinib
